Holding throughout (experiment): SPR
For assay [1], the target named is T1, cynomolgus PDL1-Fc chimeric protein (cynomolgus monkey, UniProt G7PSE7 19-239).
T1 construct: PDL1-Fc chimeric protein from different species captured on the chip
The method, then:
Affinity to PDL1 of the different species was determined by SPR measurements using a Biacore T200 device (GE Healthcare). An antibody specific for the Fc region of human IgGs was immobilized on a sensor chip (CM5 sensor chip, GE Healthcare) by amine-coupling. For all formats, with the exception of the Fc containing Morrison formats, PDL1-Fc chimeric protein from different species were captured by the immobilized antibody.
Three-fold serial dilutions of the molecules specific for PDL1 (0.12-90 nM) were injected into the flow cells for three minutes and dissociation was monitored for 10 minutes. After each injection cycle, surfaces were regenerated with one injection of a 3 M MgCl₂ solution. The apparent dissociation (kd) and association (kₐ) rate constants and the apparent dissociation equilibrium constant (KD) were calculated using one-to-one Langmuir binding model. Affinity to CD137 of the different species was determined using the identical setup as for PDL1 with the exception that CD137-Fc chimeric protein from different species were captured by the immobilized antibody.

Protein sequences, listed by entry. Tags and fused reporters are not part of them. Lines headed by an entry give the natural chain unless they say otherwise; changes in a name come on top.
UniProt Q9NZQ7: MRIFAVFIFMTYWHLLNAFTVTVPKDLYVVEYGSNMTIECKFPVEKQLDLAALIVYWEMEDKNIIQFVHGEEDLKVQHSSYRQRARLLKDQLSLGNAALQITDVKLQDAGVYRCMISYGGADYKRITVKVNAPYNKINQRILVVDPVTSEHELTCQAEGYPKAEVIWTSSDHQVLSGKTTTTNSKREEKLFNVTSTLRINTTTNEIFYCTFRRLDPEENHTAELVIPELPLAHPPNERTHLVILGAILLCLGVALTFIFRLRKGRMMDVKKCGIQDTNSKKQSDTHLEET
UniProt Q07011: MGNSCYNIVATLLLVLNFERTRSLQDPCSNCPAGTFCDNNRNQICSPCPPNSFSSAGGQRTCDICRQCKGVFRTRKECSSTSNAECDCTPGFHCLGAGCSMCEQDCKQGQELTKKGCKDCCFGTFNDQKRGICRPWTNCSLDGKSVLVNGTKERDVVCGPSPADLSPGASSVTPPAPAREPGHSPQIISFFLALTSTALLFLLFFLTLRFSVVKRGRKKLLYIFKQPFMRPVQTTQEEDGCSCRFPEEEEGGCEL

The target of another assay is T2, Fc tagged human PDL1 (human, UniProt Q9NZQ7 19-239).
T2 construct: Bought (Sino Biological, cat. 10084-H02H); captured on the SPR chip; also called PDL1-Fc chimeric protein

In the next assay the target is T3, Fc tagged human CD137 (human, UniProt Q07011 24-186).
T3 construct: also called CD137-Fc chimeric protein

Consider three molecules from patent publication US20230192897A1 (NUMAB THERAPEUTICS, published 2023).

No constants are given. Whether binding was seen depends on the method and setting. Some binding calls cover weakened binding; strength is not graded here.

B1: PRO830 (scFv)
scFv: DIQMTQSPSSLSASVGDRVTITCQASQSINDYLAWYQQKPGKAPKLLIYKASTLASGVPSRFSGSGSGTDFTLTISSLQPEDFATYYCQQGYIITDIDNVFGTGTKVTVLGGGGGSGGGGSGGGGSGGGGSQVQLQESGPGLVKPSETLSLTCKVSGFSFSSGYDMCWIRQPPGKGLEWIGCVVAGSVDITYYASWAKGRVTISVDSSKNQFSLKLSSVTAADTAVYYCARKDAYSDAFNLWGQGTLVTVSS
notes: anti-PDL1 scFv; also called 33-03-G02 sc01 scFv; 33-03-G02 CDR
For B1, the binding result in assay [1] is on record as “binds”.

B2: PRO997 (scFv)
scFv: DIQMTQSPSSLSASVGDRVTITCQASQSIGTYLAWYQQKPGKAPKLLIYRAFILASGVPSRFSGSGSGTDFTLTISSLQPEDFATYYCQSNFYSDSTTIGPNAFGTGTKVTVLGGGGGSGGGGSGGGGSGGGGSQVQLQESGPGLVKPSETLSLTCKVSGFSFNSDYWIYWIRQPPGKGLEWIGSIYGGSSGNTQYASWAQGRVTISVDSSKNQFSLKLSSVTAADTAVYYCARGYVDYGGATDLWGQGTLVTVSS
notes: also called 37-20-B03 sc01 scFv; 37-20-B03 CDR
For B2, the binding result in assay [1] is on record as “binds”.

B3: PRO1482 (other)
chain: DIQMTQSPSSLSASVGDRVTITCQASQSINNVLAWYQQKPGKAPKLLIYRASTLASGVPSRFSGSGSGTDFTLTISSLQPEDFATYYCQSSYGNYGDFGCGTKVTVLGGGGGSEVQLVESGGGLVQPGGSLRLSCAASGFSFNSDYWIYWVRQAPGKGLEWIASIYGGSSGNTQYASWAQGRFTISRDNSKNTVYLQMNSLRAEDTAVYFCARGYVDYGGATDLWGQGTLVTVSSGGGGSGGGGSGGGGSGGGGSIQMTQSPASLSASVGDRVTITCQASQSIGTYLAWYQQKPGKPPKLLIYRAFILASGVPSRFSGSGSGTDFTLTISSLQPEDFATYYCQSNFYSDSTTIGPNAFGTGTKVTVLGGGGGSEVQLVESGGGLVQPGGSLRLSCAASGFSFSNSYWICWVRQAPGKCLEWIGCTFVGSSDSTYYANWAKGRFTISRDNSKNTVYLQMNSLRAEDTAVYYCARHPSDAVYGYANNLWGQGTLVTVSSGGGGSGGGGSIQMTQSPSSLSASVGDRVTITCQSSESVYSNNQLSWYQQKPGQPPKLLIYDASDLASGVPSRFSGSGSGTDFTLTISSLQPEDFATYYCAGGFSSSSDTAFGGGTKLTVLGGGGGSGGGGSGGGGSGGGGSEVQLVESGGGLVQPGGSLRLSCAASGFSLSSNAMGWVRQAPGKGLEYIGIISVGGFTYYASWAKGRFTISRDNSKNTVYLQMNSLRAEDTATYFCARDRHGGDSSGAFYLWGQGTLVTVSS
notes: trispecific scDb-scFv; also called 37-20-B03 sc09.1 scDb-i/38-02-A04 sc13 scDb-o/19-01-H04 sc03 scFv
As to B3, the binding entry with Fc tagged human PDL1 and with Fc tagged human CD137 was “binds” throughout.
